Results are given in words; binding and its absence hold for the method and conditions named.
Biological target: GST-SH3 (SH3 domain of cortactin fused to GST) (UniProt Q14247)
Experiment: pull-down; equal concentrations of GST-SH3 (on glutathione beads) and purified MBP-tagged HS1BP3 proteins incubated 2 h at 4 °C, six washes with GST-buffer, anti-MBP immunoblot; both purified

Sequences of proteins named here, by UniProt entry; tags and fusion partners are left off. A change or cut given only in a name is not applied to a line headed by its entry. Residues count along the entry.
UniProt Q14247, residues 492-550: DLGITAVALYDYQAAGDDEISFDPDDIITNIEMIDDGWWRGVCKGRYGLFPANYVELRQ
UniProt Q53T59: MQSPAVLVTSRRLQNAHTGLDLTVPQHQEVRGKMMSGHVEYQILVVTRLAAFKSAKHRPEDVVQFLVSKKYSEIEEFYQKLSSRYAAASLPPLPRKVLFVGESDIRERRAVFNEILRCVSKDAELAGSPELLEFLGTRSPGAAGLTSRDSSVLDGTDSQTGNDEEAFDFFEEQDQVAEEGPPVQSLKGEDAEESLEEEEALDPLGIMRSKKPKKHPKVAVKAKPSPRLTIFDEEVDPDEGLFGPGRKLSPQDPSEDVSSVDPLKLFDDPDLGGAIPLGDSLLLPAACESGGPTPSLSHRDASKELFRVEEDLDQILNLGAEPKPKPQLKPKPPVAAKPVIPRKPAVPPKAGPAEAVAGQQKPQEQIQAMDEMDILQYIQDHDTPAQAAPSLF

| binding | Substance |
| --- | --- |
| no binding | full-length MBP-HS1BP3 PRR3.1 mutant (prolines of PRR3.1 replaced with alanine) (from UniProt Q53T59) |
| no binding | full-length MBP-HS1BP3 PRR3.2 mutant (prolines of PRR3.2 replaced with alanine) (from UniProt Q53T59) |

Source: publication PMC13399123
